Some of the results follow. Many values rest on one well or one pass, so single values are uncertain.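 The assay uses human stem cell-derived hepatocyte-like cells whose DGUOK gene was disrupted by CRISPR, modeling liver mtDNA depletion syndrome. ATP signals were scored within each plate, and any drug with a score of at least 3 was called a primary hit.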
System: DGUOK Δ14/Δ5 iPSC-derived hepatocyte-like cells (SV20)
Assay: ATP level (CellTiter-Glo luminescence) Z score relative to plate distribution, under 2-DG glycolysis block; higher = more cellular ATP (rescue of mitochondrial ATP production)
Settings: 5 µM; treatment time: day 15 to day 20 of differentiation (5 days); 2-deoxy-D-glucose: 20 mM for 24 h before assay

| Compound | ATP level |
| --- | --- |
| CCN(CC)CCOC(=O)C(c1ccccc1)c1ccccc1 | inactive: -26.6 |
| C[C@]12CC[C@@H]3c4ccc(OS(=O)(=O)O)cc4CC[C@H]3[C@@H]1CCC2=O | inactive: 0.9 |
| CC(C)CCCC(C)C1CCC2C3=CCC4CC(O)CCC4(C)C3CCC21C (configuration not stated) | inactive: 0.787 |
| Cc1ccc(S(=O)(=O)NC(=O)NN2CCCCCC2)cc1 | inactive: 2.83 |
| COc1cccc(OC)c1C(=O)N[C@@H]1C(=O)N2[C@@H]1SC(C)(C)[C@@H]2C(=O)O | inactive: 0.829 |
| COc1cc(NC(C)CCCN)c2ncccc2c1 (configuration not stated) | inactive: 1.8 |
| CC1=C(/C=C/C(C)=C/C=C/C(C)=C\C(=O)O)C(C)(C)CCC1 | inactive: -14.8 |
| CC/C(=C(/CC)c1ccc(O)cc1)c1ccc(O)cc1 | inactive: -1.39 |
| COc1cc(O)c2c(=O)c(O)c(-c3ccccc3)oc2c1 | inactive: -0.783 |
| CSc1ccc2c(c1)N(CCC1CCCCN1C)c1ccccc1S2 (configuration not stated) | inactive: -12.6 |
| NC(N)=Nc1nc(CSCC/C(N)=N/S(N)(=O)=O)cs1 | inactive: 0.571 |
| Cc1cc(-c2ccccc2)nnc1NCCN1CCOCC1 | inactive: -0.362 |
| COC1(C)CCC2OC2(C)CCC2C1CC2(C)C (configuration not stated) | inactive: 0.00805 |
| CC(=O)NCCc1ccc(O)c(-c2c(O)c(O)c3c(c2O)C(=O)c2c(cc(O)c(C(=O)O)c2C(=O)O)C3=O)c1 | inactive: -0.219 |
| COc1cc(O)c2c(=O)cc(-c3ccc(O)cc3)oc2c1 | inactive: 1.54 |
| O=c1ccn([C@@H]2O[C@H](COP(=O)(O)OP(=O)(O)OP(=O)(O)O)[C@@H](O)[C@H]2O)c(=O)[nH]1 | inactive: -0.468 |
| Cc1nc(-c2ccc(OCC(C)C)c(C#N)c2)sc1C(=O)O | inactive: 2.05 |
| CN(C)c1ccc(C(=C2C=CC(=[N+](C)C)C=C2)c2ccc(N(C)C)cc2)cc1 | inactive: -12.1 |
| CC(=O)[C@H]1CC[C@H]2[C@@H]3CC=C4C[C@@H](O)CC[C@]4(C)[C@H]3CC[C@]12C | inactive: -0.947 |
| COc1ccc(CC2c3cc(OC)c(OC)cc3CC[N+]2(C)CCC(=O)OCCCCCOC(=O)CC[N+]2(C)CCc3cc(OC)c(OC)cc3C2Cc2ccc(OC)c(OC)c2)cc1OC (configuration not stated) | inactive: 1.42 |
| CCN(CCO)CCCC(C)Nc1ccnc2cc(Cl)ccc12 (configuration not stated) | inactive: -3.64 |

| Compound | ATP level |
| --- | --- |
| CON | inactive: 1.62 |
| CC1(C)[C@@H](O)CC[C@]2(C)[C@H]3C(=O)C=C4[C@H]5C[C@@](C)(C(=O)O)CC[C@]5(C)CC[C@@]4(C)[C@]3(C)CC[C@@H]12 [18alpha-GLYCYRRHETINIC ACID] | inactive: -1.16 |
| CCOC(=O)NNc1nncc2ccccc12 | inactive: -6.5 |
| CO/N=C1\C[C@]2(C[C@@H]3C[C@@H](C/C=C(\C)C[C@@H](C)/C=C/C=C4\CO[C@@H]5[C@H](O)C(C)=C[C@@H](C(=O)O3)[C@]45O)O2)O[C@H](/C(C)=C/C(C)C)[C@H]1C | inactive: 1.15 |
| CCCCN1CCCCC1C(=O)Nc1c(C)cccc1C (configuration not stated) | inactive: 1.1 |
| CC(=O)O[C@@H]1CC2C(C)(CC[C@H](O)C2(C)C)C2CC[C@]3(C)C(=CC(=O)O[C@H]3c3ccoc3)C21C (stereo partly drawn) [3beta-HYDROXYDEOXODIHYDRODEOXYGEDUNIN] | inactive: -1.36 |
| CC(=O)c1c(O)cc(O)cc1O | inactive: -1.77 |
| CC[C@@H](C(=O)[C@@H](C)[C@@H](O)[C@H](C)CCc1ccc(C)c(O)c1C(=O)O)[C@H]1O[C@](CC)([C@H]2CC[C@](O)(CC)[C@H](C)O2)C[C@@H]1C | inactive: -36.8 |
| O=c1c(-c2cc(O)c(O)c(O)c2)coc2cc(O)c(O)c(O)c12 | inactive: 0.893 |
| CC12CCCC(O)(C1)C1CC(C)(C)C1CC2 (stereo not drawn) [beta-CARYOPHYLLENE ALCOHOL] | inactive: -1.76 |
| Cc1cc(=O)oc2c(O)c(O)ccc12 | active: 3.14 |
| CC(COc1ccccc1)NC(C)C(O)c1ccc(O)cc1 (configuration not stated) | inactive: 1.74 |
| Nc1ccc(S(=O)(=O)Nc2ccccn2)cc1 | inactive: 0.0111 |
| O=C(O)[C@H]1O[C@@H](Oc2cc3oc(-c4ccccc4)cc(=O)c3c(O)c2O)[C@H](O)[C@@H](O)[C@@H]1O | inactive: -0.0254 |
| OC[C@H]1O[C@H](OCC2O[C@@H](O)[C@H](O)[C@@H](O)[C@@H]2O)[C@H](O)[C@@H](O)[C@H]1O (some centres not stated) | inactive: -0.157 |
| Nc1ccn([C@@H]2O[C@H](CO)[C@@H](O)[C@@H]2O)c(=O)n1 | inactive: -1.54 |
| O=c1[nH]c(=O)c2ccccc2o1 | inactive: 2.3 |
| COc1ccnc(C[S+]([O-])c2nc3cc(OC(F)F)ccc3[nH]2)c1OC (configuration not stated) | inactive: 0.781 |
| O=C(O)[C@H](O)[C@@](O)(Cc1ccc(O)cc1)C(=O)O | inactive: 0.114 |
| CC(=O)N[C@@H](C=O)[C@@H](O)[C@H](O)[C@H](O)CO | inactive: -1.61 |
| C[C@@H]1C[C@H]2[C@@H]3C[C@H](F)C4=CC(=O)C=C[C@]4(C)[C@@]3(F)[C@@H](O)C[C@]2(C)[C@@]1(O)C(=O)COC(=O)C(C)(C)C | inactive: 1.39 |
